Source: article PMC9841400
No constants are given. Whether binding was seen depends on the method and setting. In cells and extracts the contact can be indirect. Some entries that bind do so weakly or less than the wild type. For some assays here: Where a sequence is shown, tags or fusion partners need not be part of it.

Assays:
[1] = target: phosphorylated mediator complex subunit 1 (MED1, phospho T1457), endogenous in clinical prostate specimens (human (endogenous in clinical prostate tumor specimens)), Q15648; assay: proximity ligation; Duolink In Situ Detection Reagents Brightfield Kit on the Ventana DISCOVERY Ultra autostainer; clinical prostate tumor specimens (57 cases), CRPC specimens; anti-TRAP220/MED1 (phospho T1457) and anti-AR (441); 1 h ligation, 2 h amplification; conditions: remark: other sources report otherwise
[2] = target: phosphorylated mediator complex subunit 1 (pMED1, at T1457), endogenous in LNCaP cells (human (endogenous in LNCaP)), Q15648; assay: proximity ligation; Duolink PLA kit; LNCaP cells transfected with AR-mEGFP, 5% CSS for 2 days, then 1 nM DHT for 2 h; with or without 4% 1,6-hexanediol for 5 min before fixing (signal significantly reduced by 1,6-HD); confocal microscopy; conditions: remark: other sources report otherwise

binding [1]	binding [2]	Binder
binds	–	androgen receptor (AR), endogenous in clinical prostate specimens, P10275 1-920 (protein, here or on the partner: phosphothreonine at T1457) MEVQLGLGRVYPRPPSKTYRGAFQNLFQSVREVIQNPGPRHPEAASAAPPGASLLLLQQQQQQQQQQQQQQQQQQQQQQQETSPRQQQQQQGEDGSPQAHRRGPTGYLVLDEEQQPSQPQSALECHPERGCVPEPGAAVAASKGLPQQLPAPPDEDDSAAPSTLSLLGPTFPGLSSCSADLKDILSEASTMQLLQQQQQEAVSEGSSSGRAREASGAPTSSKDNYLGGTSTISDNAKELCKAVSVSMGLGVEALEHLSPGEQLRGDCMYAPLLGVPPAVRPTPCAPLAECKGSLLDDSAGKSTEDTAEYSPFKGGYTKGLEGESLGCSGSAAAGSSGTLELPSTLSLYKSGALDEAAAYQSRDYYNFPLALAGPPPPPPPPHPHARIKLENPLDYGSAWAAAAAQCRYGDLASLHGAGAAGPGSGSPSAAASSSWHTLFTAEEGQLYGPCGGGGGGGGGGGGGGGGGGGGGGGEAGAVAPYGYTRPPQGLAGQESDFTAPDVWYPGGMVSRVPYPSPTCVKSEMGPWMDSYSGPYGDMRLETARDHVLPIDYYFPPQKTCLICGDEASGCHYGALTCGSCKVFFKRAAEGKQKYLCASRNDCTIDKFRRKNCPSCRLRKCYEAGMTLGARKLKKLGNLKLQEEGEASSTTSPTEETTQKLTVSHIEGYECQPIFLNVLEAIEPGVVCAGHDNNQPDSFAALLSSLNELGERQLVHVVKWAKALPGFRNLHVDDQMAVIQYSWMGLMVFAMGWRSFTNVNSRMLYFAPDLVFNEYRMHKSRMYSQCVRMRHLSQEFGWLQITPQEFLCMKALLLFSIIPVDGLKNQKFFDELRMNYIKELDRIIACKRKNPTSCSRRFYQLTKLLDSVQPIARELHQFTFDLLIKSHMVSVDFPEMMAEIISVQVPKILSGKVKPIYFHTQ
–	binds	full-length androgen receptor tagged with non-dimerizing mEGFP (AR-mEGFP), in LNCaP cells, P10275 1-920 (protein, here or on the partner: phosphothreonine at T1457) MEVQLGLGRVYPRPPSKTYRGAFQNLFQSVREVIQNPGPRHPEAASAAPPGASLLLLQQQQQQQQQQQQQQQQQQQQQQQETSPRQQQQQQGEDGSPQAHRRGPTGYLVLDEEQQPSQPQSALECHPERGCVPEPGAAVAASKGLPQQLPAPPDEDDSAAPSTLSLLGPTFPGLSSCSADLKDILSEASTMQLLQQQQQEAVSEGSSSGRAREASGAPTSSKDNYLGGTSTISDNAKELCKAVSVSMGLGVEALEHLSPGEQLRGDCMYAPLLGVPPAVRPTPCAPLAECKGSLLDDSAGKSTEDTAEYSPFKGGYTKGLEGESLGCSGSAAAGSSGTLELPSTLSLYKSGALDEAAAYQSRDYYNFPLALAGPPPPPPPPHPHARIKLENPLDYGSAWAAAAAQCRYGDLASLHGAGAAGPGSGSPSAAASSSWHTLFTAEEGQLYGPCGGGGGGGGGGGGGGGGGGGGGGGEAGAVAPYGYTRPPQGLAGQESDFTAPDVWYPGGMVSRVPYPSPTCVKSEMGPWMDSYSGPYGDMRLETARDHVLPIDYYFPPQKTCLICGDEASGCHYGALTCGSCKVFFKRAAEGKQKYLCASRNDCTIDKFRRKNCPSCRLRKCYEAGMTLGARKLKKLGNLKLQEEGEASSTTSPTEETTQKLTVSHIEGYECQPIFLNVLEAIEPGVVCAGHDNNQPDSFAALLSSLNELGERQLVHVVKWAKALPGFRNLHVDDQMAVIQYSWMGLMVFAMGWRSFTNVNSRMLYFAPDLVFNEYRMHKSRMYSQCVRMRHLSQEFGWLQITPQEFLCMKALLLFSIIPVDGLKNQKFFDELRMNYIKELDRIIACKRKNPTSCSRRFYQLTKLLDSVQPIARELHQFTFDLLIKSHMVSVDFPEMMAEIISVQVPKILSGKVKPIYFHTQ
